Laboratory results from the supplement of paper PMC12067093, “Discovery and optimisation of a covalent ligand for TRIM25 and its application to targeted protein ubiquitination” (Chemical Science, 2025).
Some of the results follow.

Compound: Cc1cc(ccc1-c1ccccc1)C(=O)N1CCCN(CC1)C(=O)CCl [compound 10]
Assay: probe-labelled cysteine peptide fold change vs DMSO (competition) (log2 fold change); higher = less target engagement (more negative = stronger competition)
Conditions: THP-1, incubation time: 4 h
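Further: competitive profiling in live THP-1 cells: cysteine peptides tagged with an iodoacetamide desthiobiotin (IA-DTB) probe, intensity after compound treatment relative to DMSO-treated cells.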

Row | Target | probe-labelled cysteine peptide fold change (10 µM) | probe-labelled cysteine peptide fold change (50 µM)
1 | PTER_Q96BW5_164_CGIIGEIGCSWPLTESERK (UniProt Q96BW5) | 0.193 | -0.372
2 | PSMA6_P60900_115_YGYEIPVDMLCK (UniProt P60900) | -0.0458 | 0.0168
3 | PTPN11_Q06124_567_YSLADQTSGDQSPLPPCTPTPPCAEMR (UniProt Q06124) | -0.0966 | -0.929
4 | PTBP1_P26599_251_LSLDGQNIYNACCTLR (UniProt P26599) | -0.353 | -0.451
5 | PTRH1_Q86Y79_72_DRHCAADLALAPLGDAQLVLLRPR (UniProt Q86Y79) | -0.0227 | 0.0387
6 | PUM2_Q8TB72_887_GQVFVLSTHPYGCR (UniProt Q8TB72) | 0.0852 | -0.371
7 | PTPN23_Q9H3S7_116_YEQACILYNLGALHSMLGAMDK (UniProt Q9H3S7) | 0.00122 | 0.181
